Laboratory results taken from US7153815B2, “Insecticide containing hydrazone derivative as the active ingredient and novel hydrazone derivative” (Nihon Nohyaku Co., Ltd., priority 2002, dated 2006).
Some results were stated once for a whole list of compounds, not compound by compound.

Each molecule was assayed on larvae of smaller tea tortrix (Adoxophyes fasciata) (assay: Insecticidal effect against larvae of smaller tea tortrix (artificial feed immersion)). Conditions: compound concentration of 500 ppm; wettable powder, artificial feed immersed 10 seconds; third stage larvae; four days after inoculation; 25° C.; suffering larva = 0.5 dead.
Format: in vivo
`CC(=NNc1ccc(Cl)c(Cl)c1)C(=O)NCc1ccc(Cl)cc1` (mixture of isomers) [compound 43] was tested, and the “mortality (%)” value was 100%.
For `CC(=NNc1ccc(SC(F)(F)F)cc1)C(=O)NCc1ccc(Cl)nc1` (mixture of isomers) [compound 68], the “mortality (%)” value was 100%.
With `CC(=NN(C)c1ccc(C(F)(F)F)cc1)C(=O)N(C)Cc1ccc(Cl)nc1` (mixture of isomers) [compound 111] the “mortality (%)” value was 100%.
`CC(=NNc1c(F)c(F)c(C(F)(F)F)c(F)c1F)C(=O)NCc1ccc(Cl)nc1` (mixture of isomers) [compound 246] was tested, and the “mortality (%)” value was 100%.
With `CC(=NNc1ccc(Cl)cc1)C(=O)NC(C)c1ccc(Cl)cc1` (racemic) [compound 100] the “mortality (%)” value was 100%.
For `CCC(C)/C(=N/Nc1ccc(Cl)cc1)C(=O)NCc1ccccc1` (racemic) [compound 163], the “mortality (%)” value was 100%.
`CCC(C)/C(=N\Nc1ccc(Cl)cc1)C(=O)NCc1ccc(Cl)cc1` (racemic) [compound 166] was tested, and the “mortality (%)” value was 100%.
In the case of `CCC(C)/C(=N\Nc1ccc(Cl)cc1)C(=O)NCc1ccc(C(F)(F)F)cc1` (racemic) [compound 168], the “mortality (%)” value is reported as 100%.
For `N#CC(=NNc1ccc(C(F)(F)F)cc1)C(=O)NCc1ccccc1` (single isomer, unassigned) [compound 174], the “mortality (%)” value was 100%.
With `N#CC(=NNc1ccc(Cl)cc1)C(=O)NCc1ccc(Cl)cc1` (single isomer, unassigned) [compound 176] the “mortality (%)” value was 100%.
For `N#CC(=NNc1ccc(C(F)(F)F)cc1)C(=O)NCc1ccc(C(F)(F)F)cc1` (single isomer, unassigned) [compound 189], the “mortality (%)” value was 100%.
For `CC(=NNc1ccc(Cl)cc1)C(=O)NCc1ccc(F)c(F)c1` [Compound No. 11], the “mortality (%)” value was 100%.
`CC(=NNc1ccc(C(F)(F)F)cc1)C(=O)NCc1ccc(F)c(F)c1` [Compound No. 12] was tested, and the “mortality (%)” value was 100%.
`CC(=NNc1ccc(C(F)(F)F)cc1)C(=O)NCc1ccc(F)nc1` [Compound No. 17] was tested, and the “mortality (%)” value was 100%.
`CC(=NNc1ccc(C(F)(F)F)cc1)C(=O)NCc1ccccc1` [compound 8] was tested, and the “mortality (%)” value was 100%.
`CC(=NNc1ccc(Cl)cc1)C(=O)NCc1ccc(F)cc1` [compound 13] was tested, and the “mortality (%)” value was 100%.
With `CC(=NNc1ccc(C(F)(F)F)cc1)C(=O)NCc1ccc(F)cc1` [compound 16] the “mortality (%)” value was 100%.
`CC(=NNc1ccc(Cl)cc1)C(=O)NCc1cccc(Cl)c1` [compound 20] was tested, and the “mortality (%)” value was 100%.
For `CC(=NNc1ccc(Br)cc1)C(=O)NCc1cccc(Cl)c1` [compound 21], the “mortality (%)” value was 100%.
`CC(=NNc1ccc(C(F)(F)F)cc1)C(=O)NCc1ccc(Cl)c(Cl)c1` [compound 22] was tested, and the “mortality (%)” value was 100%.
For `CC(=NNc1cc(F)ccc1F)C(=O)NCc1ccc(Cl)cc1` [compound 24], the “mortality (%)” value was 100%.
With `CC(=NNc1cc(F)c(F)c(F)c1)C(=O)NCc1ccc(Cl)cc1` [compound 26] the “mortality (%)” value was 100%.
In the case of `CC(=NNc1cc(F)c(F)c(F)c1)C(=O)NCc1ccc(Cl)nc1` [compound 27], the “mortality (%)” value is reported as 100%.
For `CC(=NNc1cc(F)cc(F)c1)C(=O)NCc1ccc(Cl)cc1` [compound 28], the “mortality (%)” value was 100%.
`CC(=NNc1cc(F)cc(F)c1)C(=O)NCc1ccc(Cl)nc1` [compound 29] was tested, and the “mortality (%)” value was 100%.
In the case of `CC(=NNc1ccc(C(F)(F)F)c(F)c1)C(=O)NCc1ccc(Cl)cc1` [compound 30], the “mortality (%)” value is reported as 100%.
With `CC(=NNc1ccc(C(F)(F)F)c(F)c1)C(=O)NCc1ccc(Cl)nc1` [compound 31] the “mortality (%)” value was 100%.
`CC(=NNc1ccc(F)c(C(F)(F)F)c1)C(=O)NCc1ccc(Cl)cc1` [compound 34] was tested, and the “mortality (%)” value was 100%.
In the case of `CC(=NNc1ccc(F)c(C(F)(F)F)c1)C(=O)NCc1ccc(Cl)nc1` [compound 35], the “mortality (%)” value is reported as 100%.
With `CC(=NNc1ccc(Cl)cc1Cl)C(=O)NCc1ccc(Cl)nc1` [compound 37] the “mortality (%)” value was 100%.
For `CC(=NNc1ccc(C(F)(F)F)c(Cl)c1)C(=O)NCc1ccc(Cl)cc1` [compound 38], the “mortality (%)” value was 100%.
For `CC(=NNc1ccc(Cl)c(Cl)c1)C(=O)NCc1ccc(Cl)nc1` [compound 44], the “mortality (%)” value was 100%.
`CC(=NNc1cc(Cl)c(Cl)c(Cl)c1)C(=O)NCc1ccc(Cl)cc1` [compound 45] was tested, and the “mortality (%)” value was 100%.
In the case of `CC(=NNc1cc(Cl)c(Cl)c(Cl)c1)C(=O)NCc1ccc(Cl)nc1` [compound 47], the “mortality (%)” value is reported as 100%.
In the case of `CC(=NNc1ccc(Cl)cc1)C(=O)NCc1ccc(Cl)cc1` [compound 49], the “mortality (%)” value is reported as 100%.
For `CC(=NNc1ccc(Br)cc1)C(=O)NCc1ccc(Cl)cc1` [compound 52], the “mortality (%)” value was 100%.
In the case of `CC(=NNc1ccc(Br)cc1)C(=O)NCc1ccc(Cl)nc1` [compound 53], the “mortality (%)” value is reported as 100%.
In the case of `CC(=NNc1ccc(C#N)cc1)C(=O)NCc1ccc(Cl)cc1` [compound 54], the “mortality (%)” value is reported as 100%.
For `CC(=NNc1cccc(C(F)(F)F)c1)C(=O)NCc1ccc(Cl)cc1` [compound 59], the “mortality (%)” value was 100%.
For `CC(=NNc1cccc(C(F)(F)F)c1)C(=O)NCc1ccc(Cl)nc1` [compound 60], the “mortality (%)” value was 100%.
For `CC(=NNc1ccc(OC(F)(F)F)cc1)C(=O)NCc1ccc(Cl)cc1` [compound 64], the “mortality (%)” value was 100%.
In the case of `CC(=NNc1ccc(OC(F)(F)F)cc1)C(=O)NCc1ccc(Cl)nc1` [compound 65], the “mortality (%)” value is reported as 100%.
For `CC(=NNc1ccc(C(F)(F)F)cc1)C(=O)NCc1cnc(Cl)c(Cl)c1` [compound 69], the “mortality (%)” value was 100%.
For `CC(=NNc1ccc(Cl)cc1)C(=O)NCc1ccc(Br)cc1` [compound 71], the “mortality (%)” value was 100%.
With `CC(=NNc1ccc(Br)cc1)C(=O)NCc1ccc(Br)cc1` [compound 72] the “mortality (%)” value was 100%.
In the case of `CC(=NNc1ccc(C(F)(F)F)cc1)C(=O)NCc1ccc(Br)cc1` [compound 73], the “mortality (%)” value is reported as 100%.
For `CC(=NNc1ccc(C(F)(F)F)cc1)C(=O)NCc1ccc(Br)nc1` [compound 74], the “mortality (%)” value was 100%.
In the case of `CC(=NNc1ccc(C(F)(F)F)cc1)C(=O)NCc1cncc(Br)c1` [compound 75], the “mortality (%)” value is reported as 100%.
`CC(=NNc1ccc(Cl)cc1)C(=O)NCc1ccc(C)cc1` [compound 78] was tested, and the “mortality (%)” value was 100%.
In the case of `CC(=NNc1ccc(C(F)(F)F)cc1)C(=O)NCc1ccc(C)nc1` [compound 79], the “mortality (%)” value is reported as 100%.
`CCc1ccc(CNC(=O)C(C)=NNc2ccc(C(F)(F)F)cc2)cn1` [compound 82] was tested, and the “mortality (%)” value was 100%.
In the case of `CCCCc1ccc(CNC(=O)C(C)=NNc2ccc(C(F)(F)F)cc2)cn1` [compound 85], the “mortality (%)” value is reported as 100%.
In the case of `CC(=NNc1ccc(Cl)cc1)C(=O)NCc1ccc(C(F)(F)F)cc1` [compound 90], the “mortality (%)” value is reported as 100%.
In the case of `CC(=NNc1ccc(C(F)(F)F)cc1)C(=O)NCc1ccc(C(F)(F)F)cc1` [compound 91], the “mortality (%)” value is reported as 100%.
For `CC(=NNc1ccc(C(F)(F)F)cc1)C(=O)NCc1ccc(C(F)(F)F)nc1` [compound 92], the “mortality (%)” value was 100%.
For `COc1ccc(CNC(=O)C(C)=NNc2ccc(C(F)(F)F)cc2)cn1` [compound 94], the “mortality (%)” value was 100%.
`CCOc1ccc(CNC(=O)C(C)=NNc2ccc(C(F)(F)F)cc2)cn1` [compound 95] was tested, and the “mortality (%)” value was 100%.
With `CC(=NNc1ccc(C(F)(F)F)cc1)C(=O)NCc1ccc(N(C)C)nc1` [compound 97] the “mortality (%)” value was 100%.
With `CC(=NNc1ccc(C(F)(F)F)cc1)C(=O)NCc1ccc(SC(F)(F)F)cc1` [compound 99] the “mortality (%)” value was 100%.
For `CC(=NNc1ccc(C(F)(F)F)cc1)C(=O)NNc1ccc(Cl)nc1` [compound 106], the “mortality (%)” value was 100%.
For `CC(=NNc1ccc(Cl)cc1)C(=O)NOc1ccc(C(F)(F)F)cc1` [compound 107], the “mortality (%)” value was 100%.
With `CCN(N=C(C)C(=O)NCc1ccc(Cl)nc1)c1ccc(C(F)(F)F)cc1` [compound 113] the “mortality (%)” value was 100%.
`CC(=NN(c1ccc(C(F)(F)F)cc1)C(C)C)C(=O)NCc1ccc(Cl)nc1` [compound 115] was tested, and the “mortality (%)” value was 100%.
With `CC(=NN(CC1CC1)c1ccc(C(F)(F)F)cc1)C(=O)NCc1ccc(Cl)nc1` [compound 117] the “mortality (%)” value was 100%.
`CC(=NN(CC(C)C)c1ccc(C(F)(F)F)cc1)C(=O)NCc1ccc(Cl)nc1` [compound 118] was tested, and the “mortality (%)” value was 100%.
`CCC(C)N(N=C(C)C(=O)NCc1ccc(Cl)nc1)c1ccc(C(F)(F)F)cc1` (stereo not drawn) [compound 119] was tested, and the “mortality (%)” value was 100%.
`C=CCN(N=C(C)C(=O)NCc1ccc(Cl)nc1)c1ccc(C(F)(F)F)cc1` [compound 120] was tested, and the “mortality (%)” value was 100%.
In the case of `C=C(C)CN(N=C(C)C(=O)NCc1ccc(Cl)nc1)c1ccc(C(F)(F)F)cc1` [compound 121], the “mortality (%)” value is reported as 100%.
In the case of `CC(=NN(CC#N)c1ccc(C(F)(F)F)cc1)C(=O)NCc1ccc(Cl)nc1` [compound 122], the “mortality (%)” value is reported as 100%.
With `CC(=NN(CCF)c1ccc(C(F)(F)F)cc1)C(=O)NCc1ccc(Cl)nc1` [compound 123] the “mortality (%)” value was 100%.
`CC(=NN(CC(F)(F)F)c1ccc(C(F)(F)F)cc1)C(=O)NCc1ccc(Cl)nc1` [compound 124] was tested, and the “mortality (%)” value was 100%.
For `COCN(N=C(C)C(=O)NCc1ccc(Cl)nc1)c1ccc(C(F)(F)F)cc1` [compound 125], the “mortality (%)” value was 100%.
`CCOCN(N=C(C)C(=O)NCc1ccc(Cl)cc1)c1ccc(C(F)(F)F)cc1` [compound 126] was tested, and the “mortality (%)” value was 100%.
In the case of `CC(=NN(COC(C)C)c1ccc(C(F)(F)F)cc1)C(=O)NCc1ccc(Cl)nc1` [compound 128], the “mortality (%)” value is reported as 100%.
With `CC(=NN(COCC(C)C)c1ccc(C(F)(F)F)cc1)C(=O)NCc1ccc(Cl)nc1` [compound 129] the “mortality (%)” value was 100%.
In the case of `CCOC(=O)CN(N=C(C)C(=O)NCc1ccc(Cl)nc1)c1ccc(C(F)(F)F)cc1` [compound 131], the “mortality (%)” value is reported as 100%.
`CC(=NN(Cc1ccc(C#N)cc1)c1ccc(C(F)(F)F)cc1)C(=O)NCc1ccc(Cl)nc1` [compound 134] was tested, and the “mortality (%)” value was 100%.
For `CC(=O)N(N=C(C)C(=O)NCc1ccc(Cl)nc1)c1ccc(C(F)(F)F)cc1` [compound 136], the “mortality (%)” value was 100%.
`CSCN(N=C(C)C(=O)NCc1ccc(Cl)nc1)c1ccc(C(F)(F)F)cc1` [compound 137] was tested, and the “mortality (%)” value was 100%.
With `CCC(=NNc1ccc(Cl)cc1)C(=O)NCc1ccccc1` [compound 139] the “mortality (%)” value was 100%.
In the case of `CCC(=NNc1ccc(C(F)(F)F)cc1)C(=O)NCc1ccc(F)cc1` [compound 144], the “mortality (%)” value is reported as 100%.
